{"source": "patent US7138248B2", "about": "“Method of inhibiting inward rectifier, G-protein activated, mammalian, potassium channels and uses thereof” (California Institute of Technology, priority 1993, dated 2006)", "key": {"[1]": {"molecular_target": "T1, atrial inward rectifier K+ (KG) channel (Rattus norvegicus, UniProt P48548+P63251)", "T1 construct": "is expressed in oocytes injected with atrial RNA; expressed in transfected cells; host or cells: Xenopus laevis oocytes injected with rat atrial total or poly(A) RNA plus 5HT1A receptor cRNA", "T1 sequence (P63251 1-501)": "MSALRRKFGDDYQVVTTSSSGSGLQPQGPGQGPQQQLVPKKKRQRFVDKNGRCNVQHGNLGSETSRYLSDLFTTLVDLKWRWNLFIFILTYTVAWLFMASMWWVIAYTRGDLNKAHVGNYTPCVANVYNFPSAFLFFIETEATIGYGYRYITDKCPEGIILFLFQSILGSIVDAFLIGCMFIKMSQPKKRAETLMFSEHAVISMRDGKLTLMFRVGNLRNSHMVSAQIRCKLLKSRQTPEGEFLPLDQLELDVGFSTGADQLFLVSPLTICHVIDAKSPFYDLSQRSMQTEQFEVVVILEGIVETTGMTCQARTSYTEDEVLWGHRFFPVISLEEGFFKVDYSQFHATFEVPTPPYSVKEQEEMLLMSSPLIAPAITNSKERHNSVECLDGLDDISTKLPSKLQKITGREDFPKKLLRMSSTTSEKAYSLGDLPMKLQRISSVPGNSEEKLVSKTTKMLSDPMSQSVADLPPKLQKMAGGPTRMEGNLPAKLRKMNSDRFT", "T1 sequence (P48548 1-419)": "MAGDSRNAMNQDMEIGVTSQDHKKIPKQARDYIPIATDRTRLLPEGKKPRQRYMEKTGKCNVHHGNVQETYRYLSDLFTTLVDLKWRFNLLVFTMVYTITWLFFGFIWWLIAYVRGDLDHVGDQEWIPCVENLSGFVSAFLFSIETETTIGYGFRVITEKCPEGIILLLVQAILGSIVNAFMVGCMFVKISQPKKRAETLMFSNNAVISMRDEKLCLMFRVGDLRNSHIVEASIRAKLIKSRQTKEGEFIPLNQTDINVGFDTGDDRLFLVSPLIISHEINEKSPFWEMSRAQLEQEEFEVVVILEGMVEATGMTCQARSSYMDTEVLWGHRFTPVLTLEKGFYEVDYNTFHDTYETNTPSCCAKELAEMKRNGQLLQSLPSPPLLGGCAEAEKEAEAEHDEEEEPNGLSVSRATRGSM", "test": "Two-electrode voltage clamp of the transmitter-evoked inward current (I5HT) in oocytes injected with atrial RNA + 5HT1A-R RNA", "format": "cell-based", "conditions": "RNA-injected oocytes of one frog, n=6"}, "[2]": {"tested_on": "Xenopus laevis oocytes", "test": "Membrane (resting) current of oocytes in normal ND96 solution, two-electrode voltage clamp", "format": "cell-based", "conditions": "RNA-injected oocytes, 4 to 5 days after injection; 10 μM ACh or 1–2 μM 5HT", "description": "Preparation of RNA and oocytes. Total RNA was extracted from atria and ventricles of 19–21 day old rats of both sexes using the procedure of Chomczinski and Sacchi (1987) Anal. Biochem. 162:156–159. Poly (A) RNA was separated on an oligo-dT cellulose column (type 3, Collaborative Biochemical Products). Ventricle poly(A) RNA was fractionated by centrifugation (18 h, 30,000 g, 4° C.) on a linear 5%–25% sucrose gradient. Xenopus laevis oocytes were prepared as previously described (Dascal & Lotan (1992) in Methods in Molecular Biology, v. 13: Protocols in Molecular Neurobiology, eds. Longstaff & Revest). and injected with either 50–120 ng/oocyte poly(A) RNA, 120–200 ng/oocyte total RNA, or 35 ng/oocyte fractionated poly(A) RNA. In most cases, 5HT1A-R RNA (5–20 ng/oocyte) was co-injected with atrial or ventricle RNA. Final volume of the injected RNA solution was 50 nl. The oocytes were incubated for 3–7 days in the NDE solution (ND96 (see below) containing 1.8 Mm CaCl2 and supplemented with 2.5 Mm Na-pyruvate and 50 μg/ml gentamicin). Occasionally, either 2.5–5% heat-inactivated horse serum or 0.5 mM theophylline were added to the NDE solution. […]"}}, "note": "For at least one compound, name, drawing or mass did not settle the structure.", "data": [{"smiles": "CC(=O)OCC[N+](C)(C)C", "note": "[ACh, acetylcholine]", "values": [{"measurement": "inward current induced by the transmitter in hK solution", "setting": "[1]", "value": "382±45", "unit": "nA"}, {"measurement": "change in membrane current in ND96 bath solution", "setting": "[2]", "value": "did not cause any significant change"}]}]}
